Where a chain is given by its changes, count along the chain named. These are yes or no findings as the source states them, for the method shown. Some entries that bind do so weakly or less than the wild type.
B1: h6E6-048 scFv clone (scFv, V domains shown)
VH: EVQLVESGGGLVKPGGSLRLSCAASGFTFSNYGVSWVRQAPGKGLEWVSTISSGGGYTHYVQSVKGRFTISRDNAKNSLYLQMNSLRAEDTAVYYCARHPRDFSYALDYWGQGTTVTVSS
VL: EIVMTQSPATLSVSPGERATLSCKASQDVGHYVAWYQQKPGQAPRLLIYWASTRHTGIPARFSGSGSGTEFTLTISSLQSEDFAVYYCQQYNIYPWTFGQGTKVEIK
B2: h6E6-049 scFv clone (scFv, V domains shown)
VH: B1 VH with V34M, T50S, V61A, Q62E, L107M
VL: B1 VL with H55A
B3: h6E6-050 scFv clone (scFv, V domains shown)
VH: B1 VH with N31R, V34M, Q62D, L107H
VL: B1 VL with V33L, H55A
B4: h6E6-051 scFv clone (scFv, V domains shown)
VH: B1 VH with V34M, Q62D
VL: B1 VL with H55A
B5: h6E6-052 scFv clone (scFv, V domains shown)
VH: B1 VH with N31H, V34T, V61A, Q62E, L107I
VL: B1 VL with V33L, H55A
B6: h6E6-053 scFv clone (scFv, V domains shown)
VH: B1 VH with N31K, Q62D, L107H
VL: B1 VL with Q79K
B7: h6E6-054 scFv clone (scFv, V domains shown)
VH: B1 VH with Q62T
VL: B1 VL with H55A
B8: h6E6-055 scFv clone (scFv, V domains shown)
VH: B1 VH with N31Q, V34H, V61A, Q62E, L107Q
VL: B1 VL with V33L, H55A
B9: h6E6-056 scFv clone (scFv, V domains shown)
VH: B1 VH with N31K, V34T, V61A, Q62P, L107Q
VL: B1 VL with K24R, H55A
B10: h6E6-057 scFv clone (scFv, V domains shown)
VH: B1 VH with N31H, Q62A
VL: B1 VL with H55A, T97A
B11: h6E6-058 scFv clone (scFv, V domains shown)
VH: B1 VH with N31V, V34L, H59Q, V61A, Q62P, L107F
VL: B1 VL with V33L, H55A
B12: h6E6-059 scFv clone (scFv, V domains shown)
VH: B1 VH with N31G, V34L, V61A, Q62P, L107F
VL: B1 VL with V33L, H55A
B13: h6E6-060 scFv clone (scFv, V domains shown)
VH: B1 VH with N31R, V34L, V61A, Q62A, L107M
VL: B1 VL with K24R, V33L, H55A
B14: h6E6-061 scFv clone (scFv, V domains shown)
VH: B1 VH with V34Q, V61A, Q62P, L107F
VL: B1 VL with K24R, H55A
B15: h6E6-062 scFv clone (scFv, V domains shown)
VH: B1 VH with N31S, V34H, H59Y, V61A, Q62E, L107H
VL: B1 VL with V33L, H55A
B16: h6E6-063 scFv clone (scFv, V domains shown)
VH: B1 VH with N31A, V34T, H59Y, V61A, Q62A, L107I
VL: B1 VL with K24R, V33L, H55A
B17: h6E6-064 scFv clone (scFv, V domains shown)
VH: B1 VH with N31H, V34I, T50S, V61A, Q62E, L107M
VL: B1 VL with K24R, H55A
B18: h6E6-065 scFv clone (scFv, V domains shown)
VH: B1 VH with N31G, V34M, Q62D
VL: B1 VL with V33L, H55A
B19: h6E6-066 scFv clone (scFv, V domains shown)
VH: B1 VH with N31A, V34S, V61A, Q62P, L107H
VL: B1 VL
B20: h6E6-067 scFv clone (scFv, V domains shown)
VH: B1 VH with N31H, V34A, V61A, Q62G, L107F
VL: B1 VL with V33L, H55A
B21: h6E6-068 scFv clone (scFv, V domains shown)
VH: B1 VH with N31S, V34I, V61A, Q62H
VL: B1 VL with V33L, H55A
B22: h6E6-069 scFv clone (scFv, V domains shown)
VH: B1 VH with N31K, Q62E, L107M
VL: B1 VL with V33L, H55A
B23: h6E6-070 scFv clone (scFv, V domains shown)
VH: B1 VH with N31Q, V34H, V61A, Q62H, L107N
VL: B1 VL with K24R, V33L, H55A
B24: h6E6-071 scFv clone (scFv, V domains shown)
VH: B1 VH with N31H, V34M, V61A, Q62E, L107F
VL: B1 VL with V33L
B25: h6E6-072 scFv clone (scFv, V domains shown)
VH: B1 VH with N31Q, V34H, V61A, Q62D, L107Q
VL: B1 VL with V33L
B26: h6E6-073 scFv clone (scFv, V domains shown)
VH: B1 VH with N31P, V34M, H59Y, V61A, Q62A, L107M
VL: B1 VL with H55A
B27: h6E6-074 scFv clone (scFv, V domains shown)
VH: B1 VH with N31K, V34T, V61A, Q62P
VL: B1 VL with V33L
B28: h6E6-075 scFv clone (scFv, V domains shown)
VH: B1 VH with N31A, V34A, V61A, Q62G, L107Q
VL: B1 VL with V33L, H55A
B29: h6E6-076 scFv clone (scFv, V domains shown)
VH: B1 VH with N31G, V34M, Q62E
VL: B1 VL with V33L, H55A
B30: h6E6-077 scFv clone (scFv, V domains shown)
VH: B1 VH with N31H, V34T, V61A, Q62P, L107I
VL: B1 VL with H55A
B31: h6E6-078 scFv clone (scFv, V domains shown)
VH: B1 VH with N31A, V34S, V61A, Q62P, L107M
VL: B1 VL with H55A
B32: h6E6-079 scFv clone (scFv, V domains shown)
VH: B1 VH with N31S, V34Q, V61A, Q62P, L107M
VL: B1 VL
B33: h6E6-080 scFv clone (scFv, V domains shown)
VH: B1 VH with N31H, V34L, S35N, V61A, Q62P, L107N
VL: B1 VL with H55A
B34: h6E6-081 scFv clone (scFv, V domains shown)
VH: B1 VH with N31S, V34M, S35N, V61A, Q62D, L107Q
VL: B1 VL with K24R

By UniProt entry, the sequences of proteins in these tests, tags left out. Where a name states a change or a piece, a line headed by the entry shows the natural chain unless it says otherwise.
UniProt Q01974: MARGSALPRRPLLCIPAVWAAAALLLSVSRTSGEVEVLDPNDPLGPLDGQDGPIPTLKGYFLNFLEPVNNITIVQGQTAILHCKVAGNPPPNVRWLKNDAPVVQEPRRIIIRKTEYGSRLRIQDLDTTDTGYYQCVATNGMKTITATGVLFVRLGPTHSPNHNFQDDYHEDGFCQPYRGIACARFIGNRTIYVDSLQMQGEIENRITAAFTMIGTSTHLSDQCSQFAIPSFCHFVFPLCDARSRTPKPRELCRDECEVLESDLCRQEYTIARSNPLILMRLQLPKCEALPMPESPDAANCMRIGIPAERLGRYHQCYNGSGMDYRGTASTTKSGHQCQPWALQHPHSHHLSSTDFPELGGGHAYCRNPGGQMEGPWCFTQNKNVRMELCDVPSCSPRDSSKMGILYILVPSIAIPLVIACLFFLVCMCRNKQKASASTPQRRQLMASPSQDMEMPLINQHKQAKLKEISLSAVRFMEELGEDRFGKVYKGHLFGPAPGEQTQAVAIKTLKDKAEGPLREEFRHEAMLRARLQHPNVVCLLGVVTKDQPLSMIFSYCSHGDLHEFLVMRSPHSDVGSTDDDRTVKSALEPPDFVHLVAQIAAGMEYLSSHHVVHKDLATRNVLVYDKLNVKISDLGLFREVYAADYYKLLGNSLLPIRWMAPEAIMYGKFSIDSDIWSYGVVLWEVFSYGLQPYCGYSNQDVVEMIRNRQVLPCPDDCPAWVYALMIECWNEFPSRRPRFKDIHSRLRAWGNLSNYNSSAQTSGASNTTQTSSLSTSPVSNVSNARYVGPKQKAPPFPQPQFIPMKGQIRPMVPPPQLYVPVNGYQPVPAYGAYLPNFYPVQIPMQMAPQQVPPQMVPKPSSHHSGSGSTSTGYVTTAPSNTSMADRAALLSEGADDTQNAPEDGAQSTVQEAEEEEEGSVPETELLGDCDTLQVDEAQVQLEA

What follows are binders tested against human ROR2 (human) (UniProt Q01974) (assay: ELISA, scFv clones).

binding, binds:
B1
B2
B3
B4
B5
B6
B7
B8
B9
B10
B11
B12
B13
B14
B15
B16
B17
B18
B19
B20
B21
B22
B23
B24
B25
B26
B27
B28
B29
B30
B31
B32
B33
B34

From patent US20260209348A1
